Experimental data: PubChem BioAssay AID1224828 (NIAID, 2016)
Assay: 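Knock-downs that increase or decrease LPS-induced p65 nuclear translocation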 (primary screen). Cell system: mouse RAW264.7 G9 macrophage reporter cells (GFP-p65, Tnf promoter-mCherry). Reagents: siRNA pool against mouse genes, 100 nM. Duration: 2 days siRNA transfection, then 40 min LPS before fixation. Challenge: LPS (Salmonella minnesota R595) at 10 ng/ml. Read-out: 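Microscopy ratio of nuclear to perinuclear-ring GFP-p65 signal, scaled to the plate median; gene score is the average of two replicate robust z-scores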. Scale: p65 translocation robust z-score: higher = more nuclear NF-kappaB p65 after LPS than the plate median; nuclear/cytoplasmic p65 ratio: higher = more nuclear NF-kappaB p65. Call rule: 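Called active when z exceeds 3.3 or falls under -1.56 (median of Tlr4 controls), giving activity score of at least 50; no calls for control wells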. Calls: active = hit (p65 shift raised or lowered); inactive = no clear change.
Shown is a random part of about 17,000 deposited reagents. Over the whole deposit, 762 (4.5%) were called active. 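Active calls include both raised and lowered p65 entry, mostly lowered; wells with fewer than 50 cells lack a z-score.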 Raw values are not corrected between plates. Entries without a mark were called inactive.

Man1c1 (mannosidase, alpha, class 1C, member 1) showed p65 translocation robust z-score -0.44; nuclear/cytoplasmic p65 ratio, rep 1 = 1.7; nuclear/cytoplasmic p65 ratio, rep 2 = 1.44; low cell count flag enough cells to score. Shkbp1 (Sh3kbp1 binding protein 1) gave nuclear/cytoplasmic p65 ratio, rep 1 = 0; nuclear/cytoplasmic p65 ratio, rep 2 = 1.13; low cell count flag fewer than 50 cells per well; well left out of scoring. Against Rpap3 (RNA polymerase II associated protein 3), the values are nuclear/cytoplasmic p65 ratio, rep 1 = 1.28; nuclear/cytoplasmic p65 ratio, rep 2 = 1.1; low cell count flag fewer than 50 cells per well; well left out of scoring. For Mbd2 (methyl-CpG binding domain protein 2), the values are p65 translocation robust z-score -1.23; nuclear/cytoplasmic p65 ratio, rep 1 = 1.31; nuclear/cytoplasmic p65 ratio, rep 2 = 1.16; low cell count flag enough cells to score. After knock-down of Thumpd3 (THUMP domain containing 3), the screen gave p65 translocation robust z-score -0.69; nuclear/cytoplasmic p65 ratio, rep 1 = 1.49; nuclear/cytoplasmic p65 ratio, rep 2 = 1.49; low cell count flag enough cells to score. Against Zmym6 (zinc finger, MYM-type 6) the deposit lists p65 translocation robust z-score 0.46; nuclear/cytoplasmic p65 ratio, rep 1 = 1.47; nuclear/cytoplasmic p65 ratio, rep 2 = 1.62; low cell count flag enough cells to score.

Dnaaf2 (dynein, axonemal assembly factor 2) scored p65 translocation robust z-score -0.13; nuclear/cytoplasmic p65 ratio, rep 1 = 1.45; nuclear/cytoplasmic p65 ratio, rep 2 = 1.5; low cell count flag enough cells to score. Against Klhdc4 (kelch domain containing 4) the deposit lists p65 translocation robust z-score -0.25; nuclear/cytoplasmic p65 ratio, rep 1 = 1.6; nuclear/cytoplasmic p65 ratio, rep 2 = 1.73; low cell count flag enough cells to score. Zfand6 (zinc finger, AN1-type domain 6) scored nuclear/cytoplasmic p65 ratio, rep 1 = 1.8; nuclear/cytoplasmic p65 ratio, rep 2 = 1.64; low cell count flag fewer than 50 cells per well; well left out of scoring. Atp5mc3 (ATP synthase membrane subunit c locus 3) scored p65 translocation robust z-score 0.2; nuclear/cytoplasmic p65 ratio, rep 1 = 1.58; nuclear/cytoplasmic p65 ratio, rep 2 = 1.59; low cell count flag enough cells to score. With knock-down of Ppp6r2 (protein phosphatase 6, regulatory subunit 2), the record shows p65 translocation robust z-score -0.57; nuclear/cytoplasmic p65 ratio, rep 1 = 1.4; nuclear/cytoplasmic p65 ratio, rep 2 = 1.41; low cell count flag enough cells to score. For Fcgr1 (Fc receptor, IgG, high affinity I) the deposit lists p65 translocation robust z-score -0.28; nuclear/cytoplasmic p65 ratio, rep 1 = 1.44; nuclear/cytoplasmic p65 ratio, rep 2 = 1.32; low cell count flag enough cells to score.

Against Ceacam11 (CEA cell adhesion molecule 11), the values are p65 translocation robust z-score 1.12; nuclear/cytoplasmic p65 ratio, rep 1 = 1.68; nuclear/cytoplasmic p65 ratio, rep 2 = 2.06; low cell count flag enough cells to score. With knock-down of Abi1 (abl interactor 1), the record shows p65 translocation robust z-score -0.87; nuclear/cytoplasmic p65 ratio, rep 1 = 1.47; nuclear/cytoplasmic p65 ratio, rep 2 = 1.34; low cell count flag enough cells to score. Against Ccdc178 (coiled coil domain containing 178), the entry reads nuclear/cytoplasmic p65 ratio, rep 1 = 1.23; nuclear/cytoplasmic p65 ratio, rep 2 = 1.28; low cell count flag fewer than 50 cells per well; well left out of scoring. Dmtn (dematin actin binding protein) gave p65 translocation robust z-score 0.91; nuclear/cytoplasmic p65 ratio, rep 1 = 1.71; nuclear/cytoplasmic p65 ratio, rep 2 = 1.6; low cell count flag enough cells to score. Csdc2 (cold shock domain containing C2, RNA binding) scored p65 translocation robust z-score 1.51; nuclear/cytoplasmic p65 ratio, rep 1 = 1.85; nuclear/cytoplasmic p65 ratio, rep 2 = 1.9; low cell count flag enough cells to score. Zfp11 (zinc finger protein 11) scored p65 translocation robust z-score 0.17; nuclear/cytoplasmic p65 ratio, rep 1 = 1.32; nuclear/cytoplasmic p65 ratio, rep 2 = 1.37; low cell count flag enough cells to score.

With knock-down of Fbxl5 (F-box and leucine-rich repeat protein 5), the screen gave p65 translocation robust z-score 1.14; nuclear/cytoplasmic p65 ratio, rep 1 = 1.59; nuclear/cytoplasmic p65 ratio, rep 2 = 1.54; low cell count flag enough cells to score. For Ppp1r15b (protein phosphatase 1, regulatory subunit 15B), the values are p65 translocation robust z-score 0.35; nuclear/cytoplasmic p65 ratio, rep 1 = 1.56; nuclear/cytoplasmic p65 ratio, rep 2 = 1.44; low cell count flag enough cells to score. For Siglecg (sialic acid binding Ig-like lectin G), the entry reads p65 translocation robust z-score -0.4; nuclear/cytoplasmic p65 ratio, rep 1 = 1.49; nuclear/cytoplasmic p65 ratio, rep 2 = 1.49; low cell count flag enough cells to score. Coxfa4 (cytochrome c oxidase associated subunit FA4) showed p65 translocation robust z-score -2.47 (active); nuclear/cytoplasmic p65 ratio, rep 1 = 1.38; nuclear/cytoplasmic p65 ratio, rep 2 = 1.17; low cell count flag enough cells to score. With knock-down of Arhgap32 (Rho GTPase activating protein 32) the results were p65 translocation robust z-score 0.4; nuclear/cytoplasmic p65 ratio, rep 1 = 1.53; nuclear/cytoplasmic p65 ratio, rep 2 = 1.39; low cell count flag enough cells to score. Tagap (T cell activation Rho GTPase activating protein) scored nuclear/cytoplasmic p65 ratio, rep 1 = 0; nuclear/cytoplasmic p65 ratio, rep 2 = 1.82; low cell count flag fewer than 50 cells per well; well left out of scoring.

Nt5c (5',3'-nucleotidase, cytosolic) showed p65 translocation robust z-score 1.77; nuclear/cytoplasmic p65 ratio, rep 1 = 2.06; nuclear/cytoplasmic p65 ratio, rep 2 = 1.72; low cell count flag enough cells to score. A030005K14Rik (RIKEN cDNA A030005K14 gene) scored p65 translocation robust z-score -1.22; nuclear/cytoplasmic p65 ratio, rep 1 = 1.18; nuclear/cytoplasmic p65 ratio, rep 2 = 1.4; low cell count flag enough cells to score. Silencing of Or7a35 (olfactory receptor family 7 subfamily A member 35) gave: nuclear/cytoplasmic p65 ratio, rep 1 = 1.51; nuclear/cytoplasmic p65 ratio, rep 2 = 1.45; low cell count flag fewer than 50 cells per well; well left out of scoring.

Only “nuclear/cytoplasmic p65 ratio, rep 2”, for 2 of the entries above:
Ppp6r2 (protein phosphatase 6, regulatory subunit 2)	1.41
Fcgr1 (Fc receptor, IgG, high affinity I)	1.32
